Source: article doi:10.1101/575860
Positions count from the first letter of the chain named. These are yes or no findings as the source states them, for the method shown. In cells and extracts the contact can be indirect. Some entries that bind do so weakly or less than the wild type. Where a sequence is shown, tags or fusion partners need not be part of it.

Protein sequences, listed by entry. Tags and fused reporters are not part of them. Lines headed by an entry give the natural chain unless they say otherwise; changes in a name come on top.
UniProt P04050, whole entry: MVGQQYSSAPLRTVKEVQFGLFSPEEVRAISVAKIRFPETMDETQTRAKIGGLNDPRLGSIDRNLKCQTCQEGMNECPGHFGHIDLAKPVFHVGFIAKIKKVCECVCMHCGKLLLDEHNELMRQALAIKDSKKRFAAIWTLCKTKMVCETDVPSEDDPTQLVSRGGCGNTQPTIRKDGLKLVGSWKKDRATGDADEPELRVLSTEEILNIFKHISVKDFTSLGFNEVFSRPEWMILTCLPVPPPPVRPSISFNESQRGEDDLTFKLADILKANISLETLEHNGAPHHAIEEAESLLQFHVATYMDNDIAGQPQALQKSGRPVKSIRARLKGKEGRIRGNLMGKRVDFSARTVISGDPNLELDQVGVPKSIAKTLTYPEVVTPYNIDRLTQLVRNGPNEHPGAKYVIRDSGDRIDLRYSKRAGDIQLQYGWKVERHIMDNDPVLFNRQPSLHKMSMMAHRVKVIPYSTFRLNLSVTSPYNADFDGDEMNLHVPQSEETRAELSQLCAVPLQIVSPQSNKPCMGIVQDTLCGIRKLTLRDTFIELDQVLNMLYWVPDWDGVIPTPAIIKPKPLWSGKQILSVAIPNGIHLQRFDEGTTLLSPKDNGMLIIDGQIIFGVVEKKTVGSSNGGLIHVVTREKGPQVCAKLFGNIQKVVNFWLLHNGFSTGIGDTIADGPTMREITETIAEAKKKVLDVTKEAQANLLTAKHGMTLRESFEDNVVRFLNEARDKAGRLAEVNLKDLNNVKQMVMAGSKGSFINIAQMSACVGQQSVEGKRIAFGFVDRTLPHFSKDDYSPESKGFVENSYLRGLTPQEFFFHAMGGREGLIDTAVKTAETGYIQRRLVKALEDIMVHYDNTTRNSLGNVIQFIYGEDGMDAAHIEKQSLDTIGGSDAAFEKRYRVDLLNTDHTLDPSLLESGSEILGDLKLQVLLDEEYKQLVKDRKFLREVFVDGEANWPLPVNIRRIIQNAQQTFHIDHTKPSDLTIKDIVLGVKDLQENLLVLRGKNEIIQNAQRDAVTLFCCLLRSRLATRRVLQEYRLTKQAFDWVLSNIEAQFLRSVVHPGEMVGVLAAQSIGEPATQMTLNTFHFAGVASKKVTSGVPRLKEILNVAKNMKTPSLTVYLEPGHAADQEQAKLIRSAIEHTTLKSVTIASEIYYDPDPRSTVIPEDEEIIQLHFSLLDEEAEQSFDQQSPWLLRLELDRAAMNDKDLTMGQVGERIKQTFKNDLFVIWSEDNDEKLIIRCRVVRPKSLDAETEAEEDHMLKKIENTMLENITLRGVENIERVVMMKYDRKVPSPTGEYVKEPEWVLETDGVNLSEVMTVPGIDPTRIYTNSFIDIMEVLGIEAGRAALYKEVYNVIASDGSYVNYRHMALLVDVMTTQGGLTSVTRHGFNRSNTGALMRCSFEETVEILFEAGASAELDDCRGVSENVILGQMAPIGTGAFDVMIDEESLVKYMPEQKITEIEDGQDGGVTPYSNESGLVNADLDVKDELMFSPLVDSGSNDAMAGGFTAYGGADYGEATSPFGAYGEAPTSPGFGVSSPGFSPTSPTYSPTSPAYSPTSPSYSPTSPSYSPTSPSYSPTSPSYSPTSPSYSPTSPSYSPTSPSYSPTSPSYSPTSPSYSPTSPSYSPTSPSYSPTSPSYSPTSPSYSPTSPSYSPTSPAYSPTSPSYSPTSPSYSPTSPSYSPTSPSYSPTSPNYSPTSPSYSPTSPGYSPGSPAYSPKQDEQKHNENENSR

Experiments:
[1] = target: T1, HA-Ddi1 (wild type), overexpressed from pADH-HA-DDI1 (S. cerevisiae) (UniProt P40087); assay: co-IP
T1 sequence: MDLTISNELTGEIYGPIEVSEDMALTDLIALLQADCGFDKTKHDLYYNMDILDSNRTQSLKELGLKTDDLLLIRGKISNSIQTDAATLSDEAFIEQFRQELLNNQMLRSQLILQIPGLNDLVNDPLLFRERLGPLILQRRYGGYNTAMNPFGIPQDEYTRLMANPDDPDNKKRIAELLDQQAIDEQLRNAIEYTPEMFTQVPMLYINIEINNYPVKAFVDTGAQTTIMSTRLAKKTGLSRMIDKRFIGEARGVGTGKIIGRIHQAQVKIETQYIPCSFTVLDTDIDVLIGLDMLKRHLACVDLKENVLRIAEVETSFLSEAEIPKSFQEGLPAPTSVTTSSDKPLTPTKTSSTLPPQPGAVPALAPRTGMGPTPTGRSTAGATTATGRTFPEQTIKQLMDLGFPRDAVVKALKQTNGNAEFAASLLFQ

[2] = target: T2, HA-Ddi1-D220A (catalytic protease mutant), overexpressed from pADH-HA-ddi1-D220A (S. cerevisiae) (UniProt P40087); assay: co-IP
T2 sequence: T1 sequence with D220A

- binding [1]: binds
- binding [2]: binds
Substance: Rpb1, core component of RNA polymerase II (from UniProt P04050 1-1733)
